Experimental data as given in patent publication US20130130306A1, “ZN (II) BASED COLORIMETRIC SENSOR AND PROCESS FOR THE PREPARATION THEREOF” (COUNCIL OF SCIENTIFIC & INDUSTRIAL RESEARCH, priority 2010, published 2013).
At least one structure is not confirmed: it was looked up by name or label, or the drawing left a doubt.

Test system: eukaryotic and prokaryotic (Gram +ve/Gram −ve) cells
Assay: Staining of eukaryotic and prokaryotic cells, time needed and differentiation
Format: cell-based
Conditions: in the presence of α-CD (cyclodextrin)
Protocol: Using the present Zn(II)-reagent (L.Zn) in presence of α-CD, eukaryotic and prokaryotic (Gram +ve/Gram −ve) cells could be stained with only 2 minutes incubation; while for the previous reagent (1.Zn) cells were needed to be incubated for 10 minutes for color development. Further, intensity of color of the stained cell (using present Zn(II)-complex was much more intense as compared to that reported earlier.
We also explored the possibility of using L.Zn/L.Zn.α-CD as the staining agent for prokaryotes (Gram +ve and Gram −ve bacterial cells). […] As expected stained cells for Gram +ve bacteria appeared longer as compared to those of the stained Gram −ve bacteria. […] Changes on the cell surfaces on binding of the dye, L.Zn (Scheme 1, Formula 1A) were also evident from the SEM images recorded for Gram −ve and Gram +ve bacteria, in absence and presence of staining agent (FIGS. 11C to 11F). […] The growth profile of Eukaryotic Yeast cells (Saccharomyces cerevisiae) and Prokaryotic bacterial cells ([…]) in an aqueous culture medium in absence and presence of L.Zn (Scheme 1, Formula 1A) are shown in FIG. 12. Change in absorbance (at λmax=600 nm) vs time (t) was plotted up to 30 h; as no appreciable change in growth was observed thereafter. […]

SMILES: CN(C)c1ccc(N=Nc2ccc(S(=O)(=O)N3CCCNCCNCCCNCC3)cc2)cc1.O=[N+]([O-])[O-].O=[N+]([O-])[O-].[Zn+2] [L.Zn]
- time in which staining takes place: 1 to 120 s
